What all share (experiment): co-IP
Test [1] concerns the target HA-tagged Daxx 1-732 (ΔSIM mutant) (human) (UniProt Q9UER7).
The target of test [2] is HA-tagged Daxx wild-type (death domain-associated protein 6) (human) (UniProt Q9UER7).
In test [3] the target is Daxx (endogenous) (human (endogenous in HEK293T)) (UniProt Q9UER7).
Test [4] concerns the target HA-tagged Daxx 1-732 (ΔSIM mutant) (human) (UniProt Q9UER7). This is another data set of the same source.
Test [5] deals with HA-tagged Daxx wild-type (death domain-associated protein 6) (human) (UniProt Q9UER7). The source holds these as a separate data set.

Chains of the proteins cited; added tags and fusions are not shown. Lines headed by an entry give the natural chain unless they say otherwise; changes in a name come on top. A line that says so, or that is headed by a name, gives the form on record, which may keep a tag or linker. Residues count along the entry.
UniProt Q9UER7: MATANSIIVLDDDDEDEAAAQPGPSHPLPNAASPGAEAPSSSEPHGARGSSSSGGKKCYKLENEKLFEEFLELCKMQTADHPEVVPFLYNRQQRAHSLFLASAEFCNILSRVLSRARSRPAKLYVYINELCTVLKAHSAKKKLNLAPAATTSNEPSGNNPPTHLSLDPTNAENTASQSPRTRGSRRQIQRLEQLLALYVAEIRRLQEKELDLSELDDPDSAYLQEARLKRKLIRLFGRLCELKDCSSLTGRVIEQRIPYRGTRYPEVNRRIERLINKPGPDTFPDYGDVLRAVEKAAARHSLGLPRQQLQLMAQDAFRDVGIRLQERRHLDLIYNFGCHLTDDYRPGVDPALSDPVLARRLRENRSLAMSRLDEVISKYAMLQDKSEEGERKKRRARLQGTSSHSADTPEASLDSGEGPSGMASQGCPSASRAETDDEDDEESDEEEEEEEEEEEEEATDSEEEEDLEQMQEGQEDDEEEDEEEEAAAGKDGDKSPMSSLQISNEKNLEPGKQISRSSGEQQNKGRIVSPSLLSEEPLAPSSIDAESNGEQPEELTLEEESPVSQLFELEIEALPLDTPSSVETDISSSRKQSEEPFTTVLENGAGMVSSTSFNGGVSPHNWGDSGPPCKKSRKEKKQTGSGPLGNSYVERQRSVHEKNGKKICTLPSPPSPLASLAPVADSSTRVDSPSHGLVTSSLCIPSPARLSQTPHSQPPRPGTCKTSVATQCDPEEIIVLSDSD
HA-tagged Daxx 1-732 (ΔSIM mutant): residues 1-732 of Q9UER7
UniProt P49792: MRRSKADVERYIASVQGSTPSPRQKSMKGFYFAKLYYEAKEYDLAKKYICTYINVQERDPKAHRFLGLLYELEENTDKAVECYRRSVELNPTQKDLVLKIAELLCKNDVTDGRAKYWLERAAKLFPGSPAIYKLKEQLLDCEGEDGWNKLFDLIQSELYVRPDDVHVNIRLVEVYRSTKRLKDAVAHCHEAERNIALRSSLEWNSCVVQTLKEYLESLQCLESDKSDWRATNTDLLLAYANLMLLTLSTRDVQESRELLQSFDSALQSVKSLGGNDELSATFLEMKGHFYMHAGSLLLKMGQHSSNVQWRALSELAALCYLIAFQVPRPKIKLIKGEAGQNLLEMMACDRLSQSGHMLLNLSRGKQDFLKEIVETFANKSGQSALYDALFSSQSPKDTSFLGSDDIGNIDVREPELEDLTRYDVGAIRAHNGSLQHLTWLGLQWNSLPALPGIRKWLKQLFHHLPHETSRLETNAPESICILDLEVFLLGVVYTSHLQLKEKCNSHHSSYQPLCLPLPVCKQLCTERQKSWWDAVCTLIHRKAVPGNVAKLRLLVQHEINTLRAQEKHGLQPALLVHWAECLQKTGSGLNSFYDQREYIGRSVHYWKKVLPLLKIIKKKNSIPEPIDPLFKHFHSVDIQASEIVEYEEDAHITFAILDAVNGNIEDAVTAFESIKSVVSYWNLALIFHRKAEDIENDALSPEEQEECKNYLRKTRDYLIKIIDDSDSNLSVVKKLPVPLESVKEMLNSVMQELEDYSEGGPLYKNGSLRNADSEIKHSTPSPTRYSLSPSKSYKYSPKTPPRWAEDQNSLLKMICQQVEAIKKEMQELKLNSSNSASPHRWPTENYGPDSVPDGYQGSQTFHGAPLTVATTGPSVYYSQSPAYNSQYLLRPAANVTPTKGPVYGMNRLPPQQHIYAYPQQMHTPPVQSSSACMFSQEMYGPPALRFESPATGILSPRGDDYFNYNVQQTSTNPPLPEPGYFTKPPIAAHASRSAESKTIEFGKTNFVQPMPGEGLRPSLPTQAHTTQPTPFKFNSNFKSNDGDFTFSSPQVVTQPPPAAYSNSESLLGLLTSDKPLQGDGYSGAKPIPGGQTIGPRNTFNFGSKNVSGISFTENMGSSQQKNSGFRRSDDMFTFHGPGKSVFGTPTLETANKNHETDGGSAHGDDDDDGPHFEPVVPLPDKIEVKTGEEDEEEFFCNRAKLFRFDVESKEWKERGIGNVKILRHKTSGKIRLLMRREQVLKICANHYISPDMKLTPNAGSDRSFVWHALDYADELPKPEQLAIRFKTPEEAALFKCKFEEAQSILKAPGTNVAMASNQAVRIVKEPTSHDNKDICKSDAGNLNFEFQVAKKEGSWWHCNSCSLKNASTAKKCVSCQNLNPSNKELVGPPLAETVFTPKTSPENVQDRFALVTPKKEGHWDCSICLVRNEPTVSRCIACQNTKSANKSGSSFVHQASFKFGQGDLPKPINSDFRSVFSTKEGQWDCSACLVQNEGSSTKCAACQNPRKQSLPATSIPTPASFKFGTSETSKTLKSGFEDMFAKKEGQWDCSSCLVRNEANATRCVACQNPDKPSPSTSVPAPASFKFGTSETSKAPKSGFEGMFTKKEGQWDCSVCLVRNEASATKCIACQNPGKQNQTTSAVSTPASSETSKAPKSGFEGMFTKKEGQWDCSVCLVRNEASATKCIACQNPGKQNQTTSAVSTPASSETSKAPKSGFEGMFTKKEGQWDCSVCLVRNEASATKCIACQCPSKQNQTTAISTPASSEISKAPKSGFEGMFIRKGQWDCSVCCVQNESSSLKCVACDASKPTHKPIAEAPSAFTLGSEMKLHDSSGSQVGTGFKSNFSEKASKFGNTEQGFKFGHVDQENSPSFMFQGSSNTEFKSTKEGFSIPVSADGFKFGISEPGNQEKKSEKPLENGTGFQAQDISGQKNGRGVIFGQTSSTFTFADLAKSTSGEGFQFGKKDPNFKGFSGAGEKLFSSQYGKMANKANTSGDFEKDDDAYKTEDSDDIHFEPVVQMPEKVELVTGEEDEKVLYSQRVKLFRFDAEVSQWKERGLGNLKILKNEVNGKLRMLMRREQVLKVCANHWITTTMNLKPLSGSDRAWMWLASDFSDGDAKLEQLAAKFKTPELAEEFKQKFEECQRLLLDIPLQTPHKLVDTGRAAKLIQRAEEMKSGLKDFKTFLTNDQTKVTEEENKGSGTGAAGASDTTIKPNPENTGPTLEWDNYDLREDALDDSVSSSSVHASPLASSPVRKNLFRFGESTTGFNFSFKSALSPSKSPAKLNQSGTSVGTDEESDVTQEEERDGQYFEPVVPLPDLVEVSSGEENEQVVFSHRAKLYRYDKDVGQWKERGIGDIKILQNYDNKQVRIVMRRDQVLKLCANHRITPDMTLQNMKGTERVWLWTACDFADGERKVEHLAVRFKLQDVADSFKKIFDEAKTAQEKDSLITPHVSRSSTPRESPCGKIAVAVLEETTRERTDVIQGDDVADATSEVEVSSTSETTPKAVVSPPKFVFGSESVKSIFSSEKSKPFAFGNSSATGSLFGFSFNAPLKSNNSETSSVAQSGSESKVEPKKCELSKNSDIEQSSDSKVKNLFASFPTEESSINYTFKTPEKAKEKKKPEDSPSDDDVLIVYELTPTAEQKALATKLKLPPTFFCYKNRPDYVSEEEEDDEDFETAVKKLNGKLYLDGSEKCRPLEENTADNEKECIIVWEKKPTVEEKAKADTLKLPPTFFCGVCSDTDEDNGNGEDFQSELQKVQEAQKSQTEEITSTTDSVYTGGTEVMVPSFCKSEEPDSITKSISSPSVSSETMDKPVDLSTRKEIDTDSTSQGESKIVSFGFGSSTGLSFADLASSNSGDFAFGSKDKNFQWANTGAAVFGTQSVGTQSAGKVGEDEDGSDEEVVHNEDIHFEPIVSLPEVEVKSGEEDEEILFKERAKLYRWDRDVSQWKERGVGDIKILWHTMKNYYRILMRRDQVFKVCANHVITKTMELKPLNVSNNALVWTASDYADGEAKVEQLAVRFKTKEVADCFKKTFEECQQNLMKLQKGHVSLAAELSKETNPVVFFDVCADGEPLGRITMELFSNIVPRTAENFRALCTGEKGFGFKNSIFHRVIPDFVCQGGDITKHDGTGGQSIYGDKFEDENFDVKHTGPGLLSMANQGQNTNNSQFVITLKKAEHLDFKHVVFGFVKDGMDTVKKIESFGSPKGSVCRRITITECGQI
UniProt Q9C035: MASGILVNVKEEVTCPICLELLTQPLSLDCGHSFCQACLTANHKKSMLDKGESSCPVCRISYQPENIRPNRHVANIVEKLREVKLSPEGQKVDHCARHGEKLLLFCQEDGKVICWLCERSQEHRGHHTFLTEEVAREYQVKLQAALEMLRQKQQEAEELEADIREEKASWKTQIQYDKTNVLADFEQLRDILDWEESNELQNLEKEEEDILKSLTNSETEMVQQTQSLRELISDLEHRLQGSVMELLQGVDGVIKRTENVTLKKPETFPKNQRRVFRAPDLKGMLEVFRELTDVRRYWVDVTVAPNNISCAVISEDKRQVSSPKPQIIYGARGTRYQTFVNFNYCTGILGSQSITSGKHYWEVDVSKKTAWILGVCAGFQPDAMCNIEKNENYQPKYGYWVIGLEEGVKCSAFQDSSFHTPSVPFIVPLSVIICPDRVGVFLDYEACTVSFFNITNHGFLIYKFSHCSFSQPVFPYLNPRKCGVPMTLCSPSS

Where two headings read alike, the source gives them in different places. These are yes or no findings as the source states them, for the method shown. Binding seen in cells or lysates may run through a third protein. Some results given as binding are weak or reduced against the parent protein; the word gives no strength.

Take “E3 SUMO-protein ligase RanBP2 (from UniProt P49792 1-3224)”: the binding result in test [1] and in test [2] was “binds” throughout.

As for “Flag-tagged human TRIM5α (from UniProt Q9C035 1-493)”, the binding entry in test [3] was “binds”.

With “TRIM5α (endogenous) (from UniProt Q9C035 1-493)”, the binding result in test [1] and in test [2] was “binds” in each case.

B1: Transportin-3 (protein, UniProt Q9Y5L0 1-923)
chain: MEGAKPTLQLVYQAVQALYHDPDPSGKERASFWLGELQRSVHAWEISDQLLQIRQDVESCYFAAQTMKMKIQTSFYELPTDSHASLRDSLLTHIQNLKDLSPVIVTQLALAIADLALQMPSWKGCVQTLVEKYSNDVTSLPFLLEILTVLPEEVHSRSLRIGANRRTEIIEDLAFYSSTVVSLLMTCVEKAGTDEKMLMKVFRCLGSWFNLGVLDSNFMANNKLLALLFEVLQQDKTSSNLHEAASDCVCSALYAIENVETNLPLAMQLFQGVLTLETAYHMAVAREDLDKVLNYCRIFTELCETFLEKIVCTPGQGLGDLRTLELLLICAGHPQYEVVEISFNFWYRLGEHLYKTNDEVIHGIFKAYIQRLLHALARHCQLEPDHEGVPEETDDFGEFRMRVSDLVKDLIFLIGSMECFAQLYSTLKEGNPPWEVTEAVLFIMAAIAKSVDPENNPTLVEVLEGVVRLPETVHTAVRYTSIELVGEMSEVVDRNPQFLDPVLGYLMKGLCEKPLASAAAKAIHNICSVCRDHMAQHFNGLLEIARSLDSFLLSPEAAVGLLKGTALVLARLPLDKITECLSELCSVQVMALKKLLSQEPSNGISSDPTVFLDRLAVIFRHTNPIVENGQTHPCQKVIQEIWPVLSETLNKHRADNRIVERCCRCLRFAVRCVGKGSAALLQPLVTQMVNVYHVHQHSCFLYLGSILVDEYGMEEGCRQGLLDMLQALCIPTFQLLEQQNGLQNHPDTVDDLFRLATRFIQRSPVTLLRSQVVIPILQWAIASTTLDHRDANCSVMRFLRDLIHTGVANDHEEDFELRKELIGQVMNQLGQQLVSQLLHTCCFCLPPYTLPDVAEVLWEIMQVDRPTFCRWLENSLKGLPKETTVGAVTVTHKQLTDFHKQVTSAEECKQVCWALRDFTRLFR
Turning to B1, the binding entry in test [4] and in test [5] was “binds” in each case.

B2: TRIM34 (protein, UniProt Q9BYJ4 1-488)
chain: MASKILLNVQEEVTCPICLELLTEPLSLDCGHSLCRACITVSNKEAVTSMGGKSSCPVCGISYSFEHLQANQHLANIVERLKEVKLSPDNGKKRDLCDHHGEKLLLFCKEDRKVICWLCERSQEHRGHHTVLTEEVFKECQEKLQAVLKRLKKEEEEAEKLEADIREEKTSWKYQVQTERQRIQTEFDQLRSILNNEEQRELQRLEEEEKKTLDKFAEAEDELVQQKQLVRELISDVECRSQWSTMELLQDMSGIMKWSEIWRLKKPKMVSKKLKTVFHAPDLSRMLQMFRELTAVRCYWVDVTLNSVNLNLNLVLSEDQRQVISVPIWPFQCYNYGVLGSQYFSSGKHYWEVDVSKKTAWILGVYCRTYSRHMKYVVRRCANRQNLYTKYRPLFGYWVIGLQNKCKYGVFEESLSSDPEVLTLSMAVPPCRVGVFLDYEAGIVSFFNVTSHGSLIYKFSKCCFSQPVYPYFNPWNCPAPMTLCPPSS
Take B2: the binding result in test [4] and in test [5] was “binds” each time.

For the origin of these results see article PMC7354551.
